The experiment deals with YFP-DAT additionally tagged with an extracellular hemagglutinin (HA) epitope (YFP-HA-DAT) (human) (UniProt Q01959). Nature of the experiment: SDS-resistant oligomers on SDS-PAGE and western blot; PAE cells stably expressing the tagged transporter, vehicle (DMSO) or 20 µM AIM-100 for 2 hr at 37°C (also after cocaine, dopamine, amphetamine, modafinil, KRCA-0008, CHC siRNA, at 4°C or 20°C); lysis in TGH buffer, Laemmli buffer (2% SDS, 5% β-mercaptoethanol) 5 min at 95°C, 7.5% SDS-PAGE, blot with GFP antibody; oligomers (O) against monomers (M).

Amino acid sequences for entries named in this document (tags omitted).
UniProt Q01959, whole entry: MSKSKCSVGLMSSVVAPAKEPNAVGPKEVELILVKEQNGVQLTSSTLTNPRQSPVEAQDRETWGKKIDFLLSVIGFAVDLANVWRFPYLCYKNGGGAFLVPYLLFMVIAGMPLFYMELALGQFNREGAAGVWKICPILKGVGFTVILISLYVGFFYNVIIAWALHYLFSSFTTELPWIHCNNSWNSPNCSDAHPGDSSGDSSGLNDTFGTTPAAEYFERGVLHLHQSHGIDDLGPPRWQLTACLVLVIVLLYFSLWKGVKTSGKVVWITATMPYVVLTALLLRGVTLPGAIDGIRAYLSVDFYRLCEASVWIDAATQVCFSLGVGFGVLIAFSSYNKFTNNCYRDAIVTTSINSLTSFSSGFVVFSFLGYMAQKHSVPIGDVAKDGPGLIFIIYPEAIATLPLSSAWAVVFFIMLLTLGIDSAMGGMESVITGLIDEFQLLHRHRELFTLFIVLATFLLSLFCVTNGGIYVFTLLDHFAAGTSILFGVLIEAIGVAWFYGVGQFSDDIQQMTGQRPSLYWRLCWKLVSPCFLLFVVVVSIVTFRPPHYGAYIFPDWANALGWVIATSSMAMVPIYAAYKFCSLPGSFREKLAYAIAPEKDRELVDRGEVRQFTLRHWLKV

Our source for the binding values is paper PMC5896956, “Small molecule induced oligomerization, clustering and clathrin-independent endocytosis of the dopamine transporter” (eLife, 2018).

These are yes or no findings as the source states them, for the method shown. Some entries that bind do so weakly or less than the wild type.

Regarding “YFP-DAT additionally tagged with an extracellular hemagglutinin (HA) epitope (YFP-HA-DAT) (from UniProt Q01959 1-620)”, the binding result is given as “binds”.
